From US20240010741A1 come the findings set out here.

Protein sequences, listed by entry. Tags and fused reporters are not part of them. Lines headed by an entry give the natural chain unless they say otherwise; changes in a name come on top. Chains listed by the source or under a name are the forms on record and can include a tag or linker. Residues count along the entry.
UniProt P25942: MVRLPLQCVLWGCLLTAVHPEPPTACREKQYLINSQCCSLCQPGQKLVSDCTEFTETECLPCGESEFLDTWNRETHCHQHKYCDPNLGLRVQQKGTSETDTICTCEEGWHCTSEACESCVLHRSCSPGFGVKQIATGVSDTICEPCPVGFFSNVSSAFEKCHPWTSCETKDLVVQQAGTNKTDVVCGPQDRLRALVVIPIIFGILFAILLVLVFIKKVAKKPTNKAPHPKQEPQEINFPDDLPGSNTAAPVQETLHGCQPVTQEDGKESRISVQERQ
cell-expressed CD40: residues 21-277 of P25942
HIS-tagged CD40 recombinant protein (Acro Biosystems): residues 21-193 of P25942
soluble cynomolgus monkey CD40 monomeric protein (Acro Biosystems) (G7PG38, form named): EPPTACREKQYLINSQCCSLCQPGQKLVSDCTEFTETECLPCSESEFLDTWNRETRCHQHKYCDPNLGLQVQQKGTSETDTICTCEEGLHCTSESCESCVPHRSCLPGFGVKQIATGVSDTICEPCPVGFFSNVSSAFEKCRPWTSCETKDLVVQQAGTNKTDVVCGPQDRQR

Numbering of substitutions follows the chain as printed. These are yes or no findings as the source states them, for the method shown. Some results given as binding are weak or reduced against the parent protein; the word gives no strength.

Assay [1] concerns the target cell-expressed CD40 (UniProt P25942). In words: pulse chase assay on HEK-Blue-CD40L cells, antibody 0.8 µg/ml for 15 min, Alexa-488 secondary antibody, high content imaging.
Assay [2] concerns the target soluble cynomolgus monkey CD40 monomeric protein (Acro Biosystems) (cynomolgus monkey) (UniProt G7PG38). Nature of the assay: SPR Biacore T200, antibody captured via anti-human Fc. Background: SPR reads the build-up and loss of mass on a sensor chip optically.
Assay [3] has as its target HIS-tagged CD40 recombinant protein (Acro Biosystems) (UniProt P25942). Nature of the assay: ELISA: coated antibody captures HIS-CD40 (330 ng/ml) preincubated with anti-HIS-peroxidase, no competing antibody. On the technique in general: An ELISA detects its analyte on a solid surface through an enzyme-linked reagent.
Assay [4] has as its target cell-expressed CD40 (UniProt P25942). Nature of the assay: flow cytometry on HEK-Blue-CD40L cells preincubated with antibody at its EC90 concentration, then CD40L-mouse IgG2a Fc 0 to 10000 ng/ml; Alexa Fluor 488 anti-human IgG [Detection of anti-CD40 antibody binding]. Background: A flow cytometer gives signals particle by particle.

B1: MAB-16-0346 (antibody, V domains shown)
VH: EVQLEESGGGLVQPGGSLRLSCAASGFDFSTNAVSWVRQAPGKGLEWVGSISAGSSGSTYYASWAKGRFTISKDTSKTTLYLQMNSLRAEDTATYFCARGYTYLTLWGQGTLVTVSS
VL: DIVMTQSPSSLSASVGDRVTITCQASHSISSTYLSWYQQKPGQAPKLLIYRASTLASGVPSRFSGSGSGTDFTLTISSLQPEDFATYYCQYTDYGSSYVSTFGQGTKVVIK
On to B1, for which, in the assay with cell-expressed CD40 [1], the binding result is “binds”.

B2: MAB-16-0325 (antibody, V domains shown)
VH: B1 VH with D28S, T31S, V34M, L45P, G49V, S50T, S52Y, Y101A
VL: DIVMTQSPSSLSASVGDRVTITCQASQSISNYLSWYQQKPGQAPKLLIYRASTLPSGVPSRFSGSGSGTDFTLTISSLQPEDFATYYCQGYYYSGTTYDSTAFGQGTKVVIK
For the molecule B2, in the assay with cell-expressed CD40 [1], the binding result was “binds”.

B3: MAB-16-0388 (antibody, V domains shown)
VH: B1 VH with E5V, T31S, V34M, S50I, S52Y, Y101A, L104I
VL: DIVMTQSPSSLSASVGDRVTITCQASQSIGSYLAWYQQKPGQAPKLLIYRASTLASGVPSRFSGSGSGTDFTLTISSLQPEDFATYYCQGYYYSTTTTTYDSSAFGQGTKVVIK
As to B3, the binding result in the assay with cell-expressed CD40 [1] was “binds”.

B4: MAB-16-0464 (antibody, V domains shown)
VH: B1 VH with T31S, V34M, S50T, S52Y, S56N, S58N, Y60D, Y101A, T102S, L104F
VL: DIVMTQSPSSLSASVGDRVTITCQASESVVSNNRLAWYQQKPGQAPKLLIYLASTLPSGVPSRFSGSGSGTDFTLTISSLQPEDFATYYCAGYKSSSTDGTAFGQGTKVVIK
In the case of B4, the binding result (in assay [2]; in assay [3]; with cell-expressed CD40 [1]; with cell-expressed CD40 [4]) was “binds” in each case.

B5: MAB-16-0400 (antibody, V domains shown)
VH: EVQLEESGGGLVQPGGSLRLSCAASGIDFSRYFYMCWVRQAPGKGLEWVACIGPGVSGDTYYASWAKGRFTISGDTSKTTLYLQMNSLRAEDTATYFCARGVDYTYGDAGAAFNLWGQGTLVTVSS
VL: DIVMTQSPSSLSASVGDRVTITCQASQSISSYLAWYQQKPGQAPKLLIYRASILASGVPSRFSGSGSGTDFTLTISSLQPEDFATYYCQTYYSSRTYSYGSPNAFGQGTKVVIK
Regarding B5, in the assay with cell-expressed CD40 [1], the binding result was “binds”.

B6: MAB-16-0283 (antibody, V domains shown)
VH: EVQLEESGGDLVQPGASLRLSCAASGFSFSFSYWICWVRQAPGKGLELVSCIYTTSGSTYYASWAKGRFTISIDNSKTTLYLQMNSLRAEDTATYFCARSSGVSYPSYFHLWGQGTLVTVSS
VL: DIQMTQSPSSLSASVGDRVTITCQASQSISSYLAWYQQKPGQAPKLLIYSASKLPSGVPSRFSGSGSGTDFTLTISSLQPEDFATYHCQTYYYSSSSSYDYGFGQGTKVVIK
On to B6, for which the binding entry with cell-expressed CD40 [1] is reported as “binds”.

B7: MAB-16-0262 (antibody, V domains shown)
VH: EVQLEESGGGLVQPGGSLRLSCAASGFDFSTNAMCWVRQAPGKGLEWVACIAAGSSIITYYASWAKGRFTISKDTSKTTLYLQMNSLRAEDTAVYFCARGLSRFALWGQGTLVTVSS
VL: DIVMTQSPSSLSASVGDRVTITCQASQSISSYLSWYQQKPGQAPKLLIYLTSTLASGVPSRFSGSGSGTDFTLTISSLQPEDFATYYCQGYYSSSSYVSNGFGQGTKVVIK
As for B7, the binding entry (in assay [2]; in assay [3]; with cell-expressed CD40 [1]; in the assay with cell-expressed CD40 [4]) was “binds” throughout.

B8: MAB-16-0451 (antibody, V domains shown)
VH: B7 VH with T31S, A33T, A52Y, I57G, I58S, T75I, V94T, A105S
VL: DIVMTQSPSSLSASVGDRVTITCQASQSISNYLAWYQQKPGQAPKLLIYDASKLASGVPSRFSGSGSGTDFTLTISSLQPEDFATYYCQGGDYYGSSYVVAFGGGTKVVIK
On to B8, for which the binding entry (in assay [2]; in assay [3]; with cell-expressed CD40 [1]; with cell-expressed CD40 [4]) was “binds” each time.

B9: MAB-16-0377 (antibody, V domains shown)
VH: EVQLEESGGGLVQPGASLRLSCAASGFSFSGYWMCWVRQAPGKGLEWVGCIYTNSGVTYYANWAKGRFTISKDTSKTTLYLQMNSLRAEDTATYFCARGGAIYNDYDYAFYYSLWGQGTLVTVSS
VL: B7 VL with S34A, L50K, T51A, G90S, S93G, Y97I, V98S, S99Y, G101A
As to B9, the binding entry in the assay with cell-expressed CD40 [1] is given as “binds”.

B10: MAB-16-0489 (antibody, V domains shown)
VH: EVQLEESGGGLVQPGASLRLSCAASGIDFSRYFYVCWVRQAPGKGLEWVGCFANHDDSIYYAGWMNGRFTISKDTSKTTLYLQMNSLRAEDTATYFCARGVDYTVGYGGAAFNLWGQGTLVTVSS
VL: DIVMTQSPSSLSASVGDRVTITCQASQSIGSYLSWYQQKPGQAPKLLIYRATTLASGVPSRFSGSGSGTDFTLTISSLQPEDFATYYCQSYYRDSSSSAFGQGTKVVIK
Take B10: the binding result in the assay with cell-expressed CD40 [1] is “binds”.

B11: MAB-16-0406 (antibody, V domains shown)
VH: EVQLEESGGGLVQPGGSLRLSCAASGIDFSRYYYMCWVRQAPGKGPEWVACYSNGDGSTYYASWAKGRFTISKDTSKTTLYLQMNSLRAEDTATYFCARGADYSAGAAAFNLWGQGTLVTVSS
VL: DIQMTQSPSSLSASVGDRVTITCQASESIGNALVWYQQKPGQAPKLLIYRASILASGVPSRFSGSGSGTDFTLTISSLQPEDFATYYCQDYYGSSTEYNTFGQGTKVVIK
B11: the binding result (in assay [3]; with cell-expressed CD40 [1]; with cell-expressed CD40 [4]) was “binds” each time.

B12: MAB-16-0267 (antibody, V domains shown)
VH: EVQLEESGGDLVQPGASLRLSCAASGFDFNSNAMSWVRQAPGKGLEWVASIYAGGSGSTYYASWAKGRFTISKDTSKTTLYLQMNSLRAEDTATYFCARGITRLPLWGQGTLVTVSS
VL: DIQMTQSPSSLSASVGDRVTITCQASQSISSYLAWYQQKPGQAPKLLIYDASKLASGVPSRFSGSGSGTDFTLTISSLQPEDFATYYCQGTYYGSTTISAFGQGTKVVIK
As to B12, the binding result (in assay [3]; with cell-expressed CD40 [1]) was “binds” each time.

B13: MAB-16-0484 (antibody, V domains shown)
VH: B11 VH with M35I, Y52F, S53A, A105G
VL: B11 VL with E27Q, G30S, N31S, A32R, V34A, I53T, T100A
Consider B13, for which, in the assay with cell-expressed CD40 [1], the binding result is “binds”.

B14: MAB-16-0386 (antibody, V domains shown)
VH: B12 VH with A24V, N30S, A49S, G55S, T75A, I101V
VL: B12 VL with Q3V, K53T, Y92V, T96S
For B14, the binding result with cell-expressed CD40 [1] is on record as “binds”.
